Data: publication PMC9385620
No constants are given. Whether binding was seen depends on the method and setting. Binding seen in cells or lysates may run through a third protein. Some results given as binding are weak or reduced against the parent protein; the word gives no strength.

Protein sequences, listed by entry. Tags and fused reporters are not part of them. Residues count along the entry.
UniProt P02545, residues 1-646: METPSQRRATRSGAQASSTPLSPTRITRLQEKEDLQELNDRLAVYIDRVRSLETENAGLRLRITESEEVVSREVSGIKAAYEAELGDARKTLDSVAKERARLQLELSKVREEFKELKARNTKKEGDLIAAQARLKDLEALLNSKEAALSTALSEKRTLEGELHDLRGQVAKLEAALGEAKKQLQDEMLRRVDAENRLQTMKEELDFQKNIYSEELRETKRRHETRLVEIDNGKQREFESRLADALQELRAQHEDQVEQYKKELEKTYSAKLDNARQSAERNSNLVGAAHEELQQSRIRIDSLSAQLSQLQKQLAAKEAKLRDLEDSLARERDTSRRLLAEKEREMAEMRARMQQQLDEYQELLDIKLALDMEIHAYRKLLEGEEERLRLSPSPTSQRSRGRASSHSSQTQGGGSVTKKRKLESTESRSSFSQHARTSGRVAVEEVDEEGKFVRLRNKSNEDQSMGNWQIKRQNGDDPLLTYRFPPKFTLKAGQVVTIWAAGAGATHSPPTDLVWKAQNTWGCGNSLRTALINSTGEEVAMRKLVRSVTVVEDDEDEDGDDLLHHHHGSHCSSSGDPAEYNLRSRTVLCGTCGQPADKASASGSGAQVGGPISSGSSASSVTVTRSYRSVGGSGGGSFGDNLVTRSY
UniProt Q9UBN7: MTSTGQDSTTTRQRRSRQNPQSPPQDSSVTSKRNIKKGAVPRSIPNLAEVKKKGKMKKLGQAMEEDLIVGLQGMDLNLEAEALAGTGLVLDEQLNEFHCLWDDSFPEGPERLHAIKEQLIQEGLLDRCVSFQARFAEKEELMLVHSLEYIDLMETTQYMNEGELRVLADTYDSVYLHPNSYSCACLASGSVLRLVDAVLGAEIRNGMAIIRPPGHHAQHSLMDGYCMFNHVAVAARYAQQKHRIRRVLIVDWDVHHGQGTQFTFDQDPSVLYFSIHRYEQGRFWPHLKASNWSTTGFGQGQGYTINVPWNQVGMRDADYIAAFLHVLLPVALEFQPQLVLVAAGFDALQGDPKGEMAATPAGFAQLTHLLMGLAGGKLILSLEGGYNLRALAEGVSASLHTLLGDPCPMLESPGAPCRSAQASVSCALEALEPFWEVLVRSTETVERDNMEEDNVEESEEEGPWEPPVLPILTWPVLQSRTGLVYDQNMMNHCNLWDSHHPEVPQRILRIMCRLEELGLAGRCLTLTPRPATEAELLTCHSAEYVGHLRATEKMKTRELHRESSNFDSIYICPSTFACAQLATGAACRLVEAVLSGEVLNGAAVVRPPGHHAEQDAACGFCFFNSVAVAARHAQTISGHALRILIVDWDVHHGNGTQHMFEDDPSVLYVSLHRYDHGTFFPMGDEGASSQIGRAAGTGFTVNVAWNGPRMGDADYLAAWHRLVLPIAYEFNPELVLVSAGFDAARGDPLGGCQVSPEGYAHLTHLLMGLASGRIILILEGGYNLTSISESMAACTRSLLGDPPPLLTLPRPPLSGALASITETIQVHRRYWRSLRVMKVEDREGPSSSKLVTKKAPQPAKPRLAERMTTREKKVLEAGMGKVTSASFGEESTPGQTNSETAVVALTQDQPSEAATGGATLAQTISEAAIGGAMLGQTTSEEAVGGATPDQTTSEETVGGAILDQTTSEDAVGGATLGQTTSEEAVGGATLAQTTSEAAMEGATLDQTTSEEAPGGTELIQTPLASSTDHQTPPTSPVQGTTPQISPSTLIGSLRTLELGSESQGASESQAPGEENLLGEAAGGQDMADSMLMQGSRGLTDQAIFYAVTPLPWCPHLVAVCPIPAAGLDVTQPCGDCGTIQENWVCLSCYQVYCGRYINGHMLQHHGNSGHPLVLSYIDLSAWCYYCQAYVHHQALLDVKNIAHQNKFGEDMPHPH

Experiments:
[1] = molecular target: endogenous lamin A in PLC/PRF/5 and sk-Hep1 cells (human (endogenous in PLC/PRF/5 and sk-Hep1)) (UniProt P02545); experiment: co-IP; endogenous proteins in PLC/PRF/5 and sk-Hep1 cells; reciprocal co-immunoprecipitation followed by Western blot
[2] = molecular target: lamin A (human LMNA in pcDNA3.1-3xFlag), ectopically expressed in 293T cells (human) (UniProt P02545); experiment: co-IP; exogenous proteins expressed in 293 T cells; co-immunoprecipitation followed by Western blot
[3] = molecular target: endogenous HDAC6 in PLC/PRF/5 and sk-Hep1 cells (human (endogenous in PLC/PRF/5 and sk-Hep1)) (UniProt Q9UBN7); experiment: co-IP; endogenous proteins in PLC/PRF/5 and sk-Hep1 cells; reciprocal co-immunoprecipitation followed by Western blot

## endogenous HDAC6 in PLC/PRF/5 and sk-Hep1 cells (from UniProt Q9UBN7 1-1215) (enzyme)
[1]
  binding: binds

## HDAC6 (human HDAC6 in pcDNA3.1-6xHIS), ectopically expressed in 293T cells (from UniProt Q9UBN7 1-1215) (enzyme)
[2]
  binding: binds

## endogenous lamin A in PLC/PRF/5 and sk-Hep1 cells (from UniProt P02545 1-646)
[3]
  binding: binds
